In publication PMC11500415, “Chemical inhibition of stomatal differentiation by perturbation of the master-regulatory bHLH heterodimer via an ACT-Like domain” (Nature Communications, 2024):

Target: FAMA lacking its N-terminal activation domain, yeast two-hybrid fusion (Arabidopsis thaliana)
Assay: two-hybrid; Matchmaker Gal4 system, yeast AH109; growth on SD -Trp -Leu -His with 3-AT (1 mM) and quantitative α-galactosidase assay; with 0, 10, 50, 100 μM Stomidazolone (diminishes, dose-dependent) or SIM3* (no effect)

B1: SCREAM (SCRM), yeast two-hybrid fusion (protein, UniProt Q9LSE2 1-494)
chain: MGLDGNNGGGVWLNGGGGEREENEEGSWGRNQEDGSSQFKPMLEGDWFSSNQPHPQDLQMLQNQPDFRYFGGFPFNPNDNLLLQHSIDSSSSCSPSQAFSLDPSQQNQFLSTNNNKGCLLNVPSSANPFDNAFEFGSESGFLNQIHAPISMGFGSLTQLGNRDLSSVPDFLSARSLLAPESNNNNTMLCGGFTAPLELEGFGSPANGGFVGNRAKVLKPLEVLASSGAQPTLFQKRAAMRQSSGSKMGNSESSGMRRFSDDGDMDETGIEVSGLNYESDEINESGKAAESVQIGGGGKGKKKGMPAKNLMAERRRRKKLNDRLYMLRSVVPKISKMDRASILGDAIDYLKELLQRINDLHNELESTPPGSLPPTSSSFHPLTPTPQTLSCRVKEELCPSSLPSPKGQQARVEVRLREGRAVNIHMFCGRRPGLLLATMKALDNLGLDVQQAVISCFNGFALDVFRAEQCQEGQEILPDQIKAVLFDTAGYAGMI
binding: binds

These are yes or no findings as the source states them, for the method shown. Binding calls can cover weak binding; strength is not graded here. Tags and fused reporters may be left off the sequences shown.
